Assay [1] addresses T1, mitostatin (human (endogenous in HUVEC)) (UniProt Q9BT92).
T1 sequence: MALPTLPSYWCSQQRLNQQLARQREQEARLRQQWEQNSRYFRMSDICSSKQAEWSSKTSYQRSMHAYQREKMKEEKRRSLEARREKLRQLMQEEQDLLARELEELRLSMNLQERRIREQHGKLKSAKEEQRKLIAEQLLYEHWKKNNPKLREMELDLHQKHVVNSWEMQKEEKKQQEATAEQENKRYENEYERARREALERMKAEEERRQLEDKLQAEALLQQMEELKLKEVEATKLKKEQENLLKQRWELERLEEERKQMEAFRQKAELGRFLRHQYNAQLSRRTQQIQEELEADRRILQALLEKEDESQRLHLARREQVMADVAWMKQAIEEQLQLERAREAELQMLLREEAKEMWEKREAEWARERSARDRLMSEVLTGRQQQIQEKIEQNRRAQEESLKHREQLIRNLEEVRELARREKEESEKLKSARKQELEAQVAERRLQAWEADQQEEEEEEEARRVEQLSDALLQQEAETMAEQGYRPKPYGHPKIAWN
In words: co-IP; endogenous proteins of HUVEC treated with vehicle or endorepellin; immunoprecipitated for mitostatin or for Parkin, immunoblotted for mitofusin 2, Parkin or mitostatin; control rabbit or mouse IgG-G2. In general terms: A western blot detects proteins with antibodies after separation by electrophoresis.

The chains behind the UniProt entries cited, without tags or fusion partners.
UniProt O60260: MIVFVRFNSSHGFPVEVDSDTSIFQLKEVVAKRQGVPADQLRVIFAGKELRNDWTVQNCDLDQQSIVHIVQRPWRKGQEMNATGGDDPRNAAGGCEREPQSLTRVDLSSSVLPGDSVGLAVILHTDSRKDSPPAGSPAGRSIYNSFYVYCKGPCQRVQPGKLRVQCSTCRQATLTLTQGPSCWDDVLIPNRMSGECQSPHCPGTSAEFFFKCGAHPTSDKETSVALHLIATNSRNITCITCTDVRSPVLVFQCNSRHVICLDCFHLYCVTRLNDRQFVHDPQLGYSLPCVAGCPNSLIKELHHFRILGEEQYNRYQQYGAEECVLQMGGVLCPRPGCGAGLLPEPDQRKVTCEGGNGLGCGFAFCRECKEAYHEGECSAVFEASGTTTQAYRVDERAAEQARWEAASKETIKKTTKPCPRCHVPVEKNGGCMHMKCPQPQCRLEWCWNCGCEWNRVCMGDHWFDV

For assay [2], the target named is T1, mitostatin (human (endogenous in HUVEC)). The assay can be described thus: condition: only basal conditions, HUVEC without endorepellin; co-IP; endogenous proteins of HUVEC under basal conditions (no endorepellin); immunoprecipitated for mitostatin or for Parkin, immunoblotted for Parkin or mitostatin.

Results are given in words; binding and its absence hold for the method and conditions named. Binding seen in cells or lysates may run through a third protein. Some entries that bind do so weakly or less than the wild type.

Turning to “Parkin (from UniProt O60260 1-465) (enzyme)”, the binding result in assay [1] was “binds”; in assay [2], “no binding”.

Source of the values: article PMC6078466.
